Compound in the test: CC1(C)S[C@@H]2[C@H](NC(=O)[C@H](N)c3ccccc3)C(=O)N2[C@H]1C(=O)O [ampicillin]
The test is described as follows: log2 fold change of tryptic peptide abundance, ligand vs vehicle (limited proteolysis) (log2 ratio); higher = more trypsin-susceptible (destabilized). The note with it: ligand concentration: 10 uM; sample: E. coli crude lysate.

Protein sequences, listed by entry. Tags and fused reporters are not part of them. Lines headed by an entry give the natural chain unless they say otherwise; changes in a name come on top.
UniProt P21363: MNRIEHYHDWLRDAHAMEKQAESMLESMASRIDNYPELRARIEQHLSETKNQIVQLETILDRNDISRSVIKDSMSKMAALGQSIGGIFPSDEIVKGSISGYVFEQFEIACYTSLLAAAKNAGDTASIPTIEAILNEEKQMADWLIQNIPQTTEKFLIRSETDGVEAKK
UniProt P0DM85: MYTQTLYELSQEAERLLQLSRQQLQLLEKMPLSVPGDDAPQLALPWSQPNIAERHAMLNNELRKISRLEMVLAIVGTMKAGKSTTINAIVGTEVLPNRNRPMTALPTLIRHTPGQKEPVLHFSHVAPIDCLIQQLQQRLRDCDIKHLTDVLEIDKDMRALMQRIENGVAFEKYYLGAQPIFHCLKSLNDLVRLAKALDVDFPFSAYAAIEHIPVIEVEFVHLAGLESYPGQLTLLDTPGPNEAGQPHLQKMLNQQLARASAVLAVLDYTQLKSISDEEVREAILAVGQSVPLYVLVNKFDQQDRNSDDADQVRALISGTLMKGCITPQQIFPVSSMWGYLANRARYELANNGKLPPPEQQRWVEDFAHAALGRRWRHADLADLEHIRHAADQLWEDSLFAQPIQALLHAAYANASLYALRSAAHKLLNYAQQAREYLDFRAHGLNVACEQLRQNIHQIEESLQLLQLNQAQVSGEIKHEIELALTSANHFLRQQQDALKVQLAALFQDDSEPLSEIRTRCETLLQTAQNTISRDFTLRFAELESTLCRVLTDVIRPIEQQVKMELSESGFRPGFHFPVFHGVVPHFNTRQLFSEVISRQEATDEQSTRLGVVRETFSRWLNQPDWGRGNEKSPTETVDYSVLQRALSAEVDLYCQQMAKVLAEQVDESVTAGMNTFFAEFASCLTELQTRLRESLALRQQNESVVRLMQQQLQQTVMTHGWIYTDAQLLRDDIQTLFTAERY
UniProt P23865: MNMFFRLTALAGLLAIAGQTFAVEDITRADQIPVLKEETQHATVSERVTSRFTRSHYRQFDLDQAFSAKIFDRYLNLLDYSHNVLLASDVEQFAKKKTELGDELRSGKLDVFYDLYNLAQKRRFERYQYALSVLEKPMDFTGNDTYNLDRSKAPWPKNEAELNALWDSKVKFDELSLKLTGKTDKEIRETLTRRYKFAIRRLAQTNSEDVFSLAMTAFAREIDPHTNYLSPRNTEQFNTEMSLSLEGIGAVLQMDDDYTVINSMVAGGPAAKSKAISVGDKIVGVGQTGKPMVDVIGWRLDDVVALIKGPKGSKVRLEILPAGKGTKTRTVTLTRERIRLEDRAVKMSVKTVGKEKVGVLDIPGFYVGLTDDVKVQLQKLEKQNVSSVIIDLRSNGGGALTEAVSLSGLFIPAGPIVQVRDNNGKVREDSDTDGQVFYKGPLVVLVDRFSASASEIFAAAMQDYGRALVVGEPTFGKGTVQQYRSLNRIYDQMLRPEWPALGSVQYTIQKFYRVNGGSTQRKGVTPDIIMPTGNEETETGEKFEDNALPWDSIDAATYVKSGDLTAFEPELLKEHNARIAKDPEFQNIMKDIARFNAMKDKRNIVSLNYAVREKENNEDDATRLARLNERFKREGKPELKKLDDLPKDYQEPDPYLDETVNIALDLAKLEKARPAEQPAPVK
UniProt P21866: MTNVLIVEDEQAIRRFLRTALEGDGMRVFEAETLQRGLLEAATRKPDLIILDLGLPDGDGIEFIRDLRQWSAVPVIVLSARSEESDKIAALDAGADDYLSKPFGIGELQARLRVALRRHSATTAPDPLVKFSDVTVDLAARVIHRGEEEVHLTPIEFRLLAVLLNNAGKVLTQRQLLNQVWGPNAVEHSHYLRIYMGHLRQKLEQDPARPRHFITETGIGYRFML
UniProt P22255: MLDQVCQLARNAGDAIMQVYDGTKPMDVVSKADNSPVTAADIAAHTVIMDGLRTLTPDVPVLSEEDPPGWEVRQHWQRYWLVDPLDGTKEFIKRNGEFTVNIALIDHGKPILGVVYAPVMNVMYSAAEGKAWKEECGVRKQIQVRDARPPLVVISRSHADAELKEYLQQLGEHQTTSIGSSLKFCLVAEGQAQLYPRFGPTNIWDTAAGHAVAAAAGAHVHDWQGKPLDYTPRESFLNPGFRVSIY
UniProt P24171: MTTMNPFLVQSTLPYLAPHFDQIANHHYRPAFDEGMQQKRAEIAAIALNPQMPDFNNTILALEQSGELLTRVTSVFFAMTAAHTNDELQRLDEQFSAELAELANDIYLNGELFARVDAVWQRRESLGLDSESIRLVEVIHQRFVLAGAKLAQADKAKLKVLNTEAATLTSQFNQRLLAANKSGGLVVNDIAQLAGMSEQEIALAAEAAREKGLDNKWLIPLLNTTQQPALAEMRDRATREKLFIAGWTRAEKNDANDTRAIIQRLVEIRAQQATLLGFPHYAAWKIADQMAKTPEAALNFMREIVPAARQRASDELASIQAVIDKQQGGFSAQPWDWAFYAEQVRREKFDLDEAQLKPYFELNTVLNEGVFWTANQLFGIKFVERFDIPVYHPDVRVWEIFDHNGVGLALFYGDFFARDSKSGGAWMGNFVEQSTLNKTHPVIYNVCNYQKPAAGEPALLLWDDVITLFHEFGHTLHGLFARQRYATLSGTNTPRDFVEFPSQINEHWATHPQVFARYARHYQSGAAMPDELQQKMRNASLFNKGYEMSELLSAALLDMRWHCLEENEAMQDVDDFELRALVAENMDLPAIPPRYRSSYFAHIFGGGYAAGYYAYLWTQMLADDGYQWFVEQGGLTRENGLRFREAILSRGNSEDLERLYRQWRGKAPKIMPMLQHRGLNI
UniProt P19931: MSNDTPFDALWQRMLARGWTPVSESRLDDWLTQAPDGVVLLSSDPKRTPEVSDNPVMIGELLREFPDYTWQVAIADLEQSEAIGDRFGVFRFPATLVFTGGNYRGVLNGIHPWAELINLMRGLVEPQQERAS
UniProt P0C077: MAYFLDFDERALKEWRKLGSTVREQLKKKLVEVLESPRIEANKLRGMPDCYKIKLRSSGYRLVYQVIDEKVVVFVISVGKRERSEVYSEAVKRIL
UniProt P11868: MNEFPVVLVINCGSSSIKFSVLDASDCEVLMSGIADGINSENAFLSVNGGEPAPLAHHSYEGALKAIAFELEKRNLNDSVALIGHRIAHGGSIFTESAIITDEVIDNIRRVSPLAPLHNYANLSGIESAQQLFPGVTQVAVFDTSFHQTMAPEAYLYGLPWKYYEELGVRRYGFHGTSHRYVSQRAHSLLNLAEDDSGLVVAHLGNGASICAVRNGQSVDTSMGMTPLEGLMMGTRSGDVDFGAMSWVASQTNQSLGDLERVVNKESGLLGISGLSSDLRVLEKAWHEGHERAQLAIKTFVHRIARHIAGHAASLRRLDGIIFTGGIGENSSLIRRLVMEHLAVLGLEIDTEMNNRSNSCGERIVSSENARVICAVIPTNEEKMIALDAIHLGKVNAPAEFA
UniProt P14081: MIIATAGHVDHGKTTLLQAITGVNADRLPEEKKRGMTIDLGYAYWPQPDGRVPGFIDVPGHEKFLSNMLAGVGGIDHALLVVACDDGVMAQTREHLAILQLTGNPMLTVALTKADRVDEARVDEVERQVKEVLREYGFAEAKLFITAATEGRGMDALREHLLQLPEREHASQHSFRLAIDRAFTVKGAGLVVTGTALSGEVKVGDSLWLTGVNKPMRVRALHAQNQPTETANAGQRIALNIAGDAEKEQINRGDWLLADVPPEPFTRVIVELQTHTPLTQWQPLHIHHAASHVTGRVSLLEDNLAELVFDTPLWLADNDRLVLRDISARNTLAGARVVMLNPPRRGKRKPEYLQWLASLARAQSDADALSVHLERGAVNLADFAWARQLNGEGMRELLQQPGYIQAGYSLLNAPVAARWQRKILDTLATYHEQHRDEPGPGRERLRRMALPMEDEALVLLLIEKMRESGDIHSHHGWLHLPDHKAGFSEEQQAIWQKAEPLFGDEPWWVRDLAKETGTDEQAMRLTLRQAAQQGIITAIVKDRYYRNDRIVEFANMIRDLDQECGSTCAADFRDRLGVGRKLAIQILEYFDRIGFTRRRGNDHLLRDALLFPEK
UniProt P21645: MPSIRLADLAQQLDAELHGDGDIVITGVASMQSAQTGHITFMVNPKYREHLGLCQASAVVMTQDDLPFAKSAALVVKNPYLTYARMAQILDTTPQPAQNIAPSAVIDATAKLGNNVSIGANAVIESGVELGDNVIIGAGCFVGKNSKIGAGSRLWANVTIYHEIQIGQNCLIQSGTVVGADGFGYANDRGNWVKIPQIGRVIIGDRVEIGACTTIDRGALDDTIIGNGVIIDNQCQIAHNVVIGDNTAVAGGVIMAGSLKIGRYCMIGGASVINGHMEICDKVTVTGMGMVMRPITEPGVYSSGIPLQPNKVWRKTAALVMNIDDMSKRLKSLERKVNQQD
UniProt P23857: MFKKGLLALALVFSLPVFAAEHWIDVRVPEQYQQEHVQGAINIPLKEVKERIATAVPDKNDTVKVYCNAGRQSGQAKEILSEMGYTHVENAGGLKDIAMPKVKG
UniProt P0DPP7: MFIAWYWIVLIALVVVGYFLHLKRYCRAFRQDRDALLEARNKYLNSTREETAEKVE
UniProt P21893: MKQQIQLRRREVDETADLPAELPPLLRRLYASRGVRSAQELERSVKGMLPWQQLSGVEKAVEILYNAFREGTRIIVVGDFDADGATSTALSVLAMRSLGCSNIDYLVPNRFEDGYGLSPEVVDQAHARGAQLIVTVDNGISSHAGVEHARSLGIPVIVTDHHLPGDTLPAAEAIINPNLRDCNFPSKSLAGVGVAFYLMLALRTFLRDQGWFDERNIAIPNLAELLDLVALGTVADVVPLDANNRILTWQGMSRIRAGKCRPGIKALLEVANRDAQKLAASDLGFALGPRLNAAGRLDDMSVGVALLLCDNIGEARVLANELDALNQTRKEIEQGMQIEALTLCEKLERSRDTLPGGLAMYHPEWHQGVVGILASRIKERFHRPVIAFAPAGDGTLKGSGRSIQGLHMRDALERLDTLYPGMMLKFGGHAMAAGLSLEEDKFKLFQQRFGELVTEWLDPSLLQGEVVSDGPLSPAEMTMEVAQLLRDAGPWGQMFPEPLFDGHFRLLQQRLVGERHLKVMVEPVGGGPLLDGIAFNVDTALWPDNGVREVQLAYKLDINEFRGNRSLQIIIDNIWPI
UniProt P15081: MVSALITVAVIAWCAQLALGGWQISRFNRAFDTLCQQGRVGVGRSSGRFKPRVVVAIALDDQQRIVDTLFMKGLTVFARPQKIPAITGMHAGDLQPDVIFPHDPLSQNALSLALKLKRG
UniProt P22186: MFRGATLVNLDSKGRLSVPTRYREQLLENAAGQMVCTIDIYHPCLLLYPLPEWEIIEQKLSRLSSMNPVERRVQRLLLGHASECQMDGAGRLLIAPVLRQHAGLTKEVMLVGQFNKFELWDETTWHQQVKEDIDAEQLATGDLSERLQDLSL
UniProt P21517: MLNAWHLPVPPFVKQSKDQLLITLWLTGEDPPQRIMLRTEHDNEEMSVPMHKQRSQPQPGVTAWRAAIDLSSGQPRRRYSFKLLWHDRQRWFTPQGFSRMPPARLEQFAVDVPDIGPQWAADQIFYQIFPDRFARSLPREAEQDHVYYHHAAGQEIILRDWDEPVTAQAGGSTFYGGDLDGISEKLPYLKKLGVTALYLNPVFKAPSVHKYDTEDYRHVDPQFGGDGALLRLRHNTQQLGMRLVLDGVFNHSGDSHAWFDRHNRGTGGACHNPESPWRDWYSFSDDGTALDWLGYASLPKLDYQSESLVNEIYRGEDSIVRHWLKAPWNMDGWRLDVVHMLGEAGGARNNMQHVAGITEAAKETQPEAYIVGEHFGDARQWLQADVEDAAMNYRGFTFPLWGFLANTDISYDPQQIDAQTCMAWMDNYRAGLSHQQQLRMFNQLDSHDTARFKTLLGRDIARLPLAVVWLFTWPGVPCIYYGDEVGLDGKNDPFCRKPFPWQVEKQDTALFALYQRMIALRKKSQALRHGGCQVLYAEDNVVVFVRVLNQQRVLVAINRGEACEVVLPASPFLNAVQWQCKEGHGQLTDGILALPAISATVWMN
UniProt P13518: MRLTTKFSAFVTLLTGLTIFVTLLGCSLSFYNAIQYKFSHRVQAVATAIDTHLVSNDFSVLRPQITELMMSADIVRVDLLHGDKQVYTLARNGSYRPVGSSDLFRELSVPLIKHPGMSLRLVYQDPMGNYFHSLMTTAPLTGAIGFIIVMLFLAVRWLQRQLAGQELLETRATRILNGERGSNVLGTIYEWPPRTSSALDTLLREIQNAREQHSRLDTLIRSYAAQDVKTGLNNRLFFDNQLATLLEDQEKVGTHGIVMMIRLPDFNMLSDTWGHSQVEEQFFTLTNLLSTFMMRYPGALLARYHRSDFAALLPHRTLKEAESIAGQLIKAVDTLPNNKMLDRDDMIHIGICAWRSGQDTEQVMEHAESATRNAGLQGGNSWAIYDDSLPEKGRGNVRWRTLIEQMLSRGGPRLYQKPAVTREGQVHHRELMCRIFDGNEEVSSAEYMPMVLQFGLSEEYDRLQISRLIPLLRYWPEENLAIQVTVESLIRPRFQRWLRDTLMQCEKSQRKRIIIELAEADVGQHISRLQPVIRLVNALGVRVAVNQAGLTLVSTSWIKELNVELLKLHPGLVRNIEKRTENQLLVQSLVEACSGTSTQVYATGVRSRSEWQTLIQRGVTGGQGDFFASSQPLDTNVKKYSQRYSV

The list shows a part of the results. Small differences around the control level are noise.

Data on 31 targets can be found in the supplement of paper PMC12819154, “High-throughput peptide-centric local stability assay extends protein–ligand identification to membrane proteins, tissues and bacteria” (Nature Structural & Molecular Biology, 2025).

With “UniProt P11072 (peptide sequence: KNLQTTGCESWPK, peptide start residue: 116)”, the log2 fold change was 0.324.

On to “UniProt P21363 (peptide sequence: SVIKDSMSK, peptide start residue: 68)”, for which the log2 fold change is -0.077.

As for “UniProt P21345 (peptide sequence: EVLGKFDK, peptide start residue: 426)”, the log2 fold change was -0.0326.

Regarding “UniProt P17802 (peptide sequence: CYAVSGWPGKK, peptide start residue: 148)”, the log2 fold change is 0.185.

As for “UniProt P0DM85 (peptide sequence: FAELESTLCR, peptide start residue: 539)”, the log2 fold change is -0.209.

In the case of “UniProt P0CB39 (peptide sequence: WIGNPYK, peptide start residue: 552)”, the log2 fold change is 0.366.

For “UniProt P23865 (peptide sequence: KTELGDELR, peptide start residue: 97)”, the log2 fold change worked out at 0.291.

Turning to “UniProt P0AGL5 (peptide sequence: AKEVYSAR, peptide start residue: 151)”, the log2 fold change came out at 0.0731.

With “UniProt P21866 (peptide sequence: QLLNQVWGPNAVEHSHYLR, peptide start residue: 175)”, the log2 fold change was found to be 0.428.

Regarding “UniProt P22634 (peptide sequence: HLLPDLHYIYAFDNVAFPYGEK, peptide start residue: 42)”, the log2 fold change was found to be 0.405.

As for “UniProt P23721 (peptide sequence: YGVIYAGAQK, peptide start residue: 189)”, the log2 fold change was found to be 0.182.

Take “UniProt P22255 (peptide sequence: AWKEECGVRK, peptide start residue: 131)”: the log2 fold change turned out to be 0.167.

Take “UniProt P24171 (peptide sequence: AQQATLLGFPHYAAWK, peptide start residue: 270)”: the log2 fold change is -0.361.

Regarding “UniProt P19931 (peptide sequence: GLVEPQQER, peptide start residue: 122)”, the log2 fold change was determined as 0.107.

Turning to “UniProt P0C077 (peptide sequence: ERSEVYSEAVKR, peptide start residue: 82)”, the log2 fold change is -0.652.

“UniProt P19323 (peptide sequence: SEAMYSVLK, peptide start residue: 385)”: the log2 fold change was 0.214.

Consider “UniProt P11868 (peptide sequence: YYEELGVRR, peptide start residue: 163)”, for which the log2 fold change is -0.401.

For “UniProt P12281 (peptide sequence: RGEDISAGAVVFPAGTR, peptide start residue: 139)”, the log2 fold change was -0.292.

“UniProt P14081 (peptide sequence: DALLFPEK, peptide start residue: 607)”: the log2 fold change is -0.322.

In the case of “UniProt P21645 (peptide sequence: SAALVVKNPYLTYAR, peptide start residue: 71)”, the log2 fold change came to 0.21.

“UniProt P23857 (peptide sequence: EILSEMGYTHVENAGGLKDIAMPK, peptide start residue: 78)”: the log2 fold change was -0.174.

For “UniProt P0DSG8 (peptide sequence: FLLIPDGR, peptide start residue: 28)”, the log2 fold change was -0.138.

On to “UniProt P0DPP7 (peptide sequence: NKYLNSTR, peptide start residue: 41)”, for which the log2 fold change was -0.0844.

“UniProt P13039 (peptide sequence: AIAPFSDR, peptide start residue: 264)”: the log2 fold change is -0.283.

With “UniProt P23886 (peptide sequence: STLLQQLTR, peptide start residue: 380)”, the log2 fold change is -0.36.

As for “UniProt P21893 (peptide sequence: KEIEQGMQIEALTLCEKLER, peptide start residue: 330)”, the log2 fold change was -0.82.

As to “UniProt P15081 (peptide sequence: IVDTLFMK, peptide start residue: 65)”, the log2 fold change was determined as 0.218.

“UniProt P22186 (peptide sequence: LLIAPVLR, peptide start residue: 92)”: the log2 fold change was -0.344.

For the target “UniProt P21517 (peptide sequence: MFNQLDSHDTAR, peptide start residue: 440)”, the log2 fold change was -0.114.

For the target “UniProt P10443 (peptide sequence: AALMNSLGDALK, peptide start residue: 896)”, the log2 fold change was 0.214.

“UniProt P13518 (peptide sequence: SGQDTEQVMEHAESATR, peptide start residue: 356)”: the log2 fold change amounted to 0.28.
